Measurements published in paper PMC11091344.
Results are given in words; binding and its absence hold for the method and conditions named. Binding seen in cells or lysates may run through a third protein. Some entries that bind do so weakly or less than the wild type. For some assays here: Where a sequence is shown, tags or fusion partners need not be part of it. Each block holds one molecule with its values, some of them ahead of it.

The chains behind the UniProt entries cited, without tags or fusion partners.
UniProt Q9R0P9: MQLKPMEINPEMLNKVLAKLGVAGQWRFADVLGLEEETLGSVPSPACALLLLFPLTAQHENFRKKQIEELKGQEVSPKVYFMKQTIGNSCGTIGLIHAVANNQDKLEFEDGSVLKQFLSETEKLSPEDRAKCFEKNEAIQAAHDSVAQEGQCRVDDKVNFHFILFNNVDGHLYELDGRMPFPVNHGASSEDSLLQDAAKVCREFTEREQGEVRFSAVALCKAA

How the values were obtained:
[1] = target: T1, Metrnl, endogenous in RAW264.7 cells (mouse (endogenous in RAW264.7)) (UniProt Q8VE43); experiment: co-IP; endogenous proteins of RAW264.7 cells; NP40 lysis; antibodies 6 hours, then magnetic beads (protein A/G) overnight with the supernatant; Western blot ('in vivo' Co-IP of the paper)
T1 sequence: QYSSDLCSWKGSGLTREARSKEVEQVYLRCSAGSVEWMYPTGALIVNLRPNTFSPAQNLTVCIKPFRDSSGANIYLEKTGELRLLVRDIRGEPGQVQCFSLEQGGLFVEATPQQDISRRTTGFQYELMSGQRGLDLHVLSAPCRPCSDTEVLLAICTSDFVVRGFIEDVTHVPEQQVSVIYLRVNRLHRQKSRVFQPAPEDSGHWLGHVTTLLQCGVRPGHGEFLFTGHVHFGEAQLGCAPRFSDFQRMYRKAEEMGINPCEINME

[2] = target: T2, Flag-Metrnl (Meteorin-like) (UniProt Q641Q3); experiment: co-IP; HEK293T cells co-transfected with Flag-Metrnl and a Myc-tagged plasmid; NP40 lysis; magnetic beads with the supernatant overnight at 4°C; Western blot ('in vitro' Co-IP of the paper)
T2 sequence: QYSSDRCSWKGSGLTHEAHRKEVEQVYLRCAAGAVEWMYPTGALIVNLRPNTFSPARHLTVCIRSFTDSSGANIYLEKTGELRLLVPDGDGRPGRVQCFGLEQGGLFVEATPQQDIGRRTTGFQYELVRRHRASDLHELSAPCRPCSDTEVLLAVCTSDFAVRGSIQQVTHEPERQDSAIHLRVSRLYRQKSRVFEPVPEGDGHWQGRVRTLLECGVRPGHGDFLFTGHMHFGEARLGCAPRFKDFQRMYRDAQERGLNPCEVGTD

binding [1]: binds
Molecule: UCHL1, endogenous in RAW264.7 cells (from UniProt Q9R0P9 1-223)

binding [2]: no binding
B1: Myc-CPT1B (protein, UniProt Q92523 1-772)
chain: MAEAHQAVAFQFTVTPDGVDFRLSREALKHVYLSGINSWKKRLIRIKNGILRGVYPGSPTSWLVVIMATVGSSFCNVDISLGLVSCIQRCLPQGCGPYQTPQTRALLSMAIFSTGVWVTGIFFFRQTLKLLLCYHGWMFEMHGKTSNLTRIWAMCIRLLSSRHPMLYSFQTSLPKLPVPRVSATIQRYLESVRPLLDDEEYYRMELLAKEFQDKTAPRLQKYLVLKSWWASNYVSDWWEEYIYLRGRSPLMVNSNYYVMDLVLIKNTDVQAARLGNIIHAMIMYRRKLDREEIKPVMALGIVPMCSYQMERMFNTTRIPGKDTDVLQHLSDSRHVAVYHKGRFFKLWLYEGARLLKPQDLEMQFQRILDDPSPPQPGEEKLAALTAGGRVEWAQARQAFFSSGKNKAALEAIERAAFFVALDEESYSYDPEDEASLSLYGKALLHGNCYNRWFDKSFTLISFKNGQLGLNAEHAWADAPIIGHLWEFVLGTDSFHLGYTETGHCLGKPNPALAPPTRLQWDIPKQCQAVIESSYQVAKALADDVELYCFQFLPFGKGLIKKCRTSPDAFVQIALQLAHFRDRGKFCLTYEASMTRMFREGRTETVRSCTSESTAFVQAMMEGSHTKADLRDLFQKAAKKHQNMYRLAMTGAGIDRHLFCLYLVSKYLGVSSPFLAEVLSEPWRLSTSQIPQSQIRMFDPEQHPNHLGAGGGFGPVADDGYGVSYMIAGENTIFFHISSKFSSSETNAQRFGNHIRKALLDIADLFQVPKAYS
